The record followed here is paper PMC10141581.

Protein sequences, listed by entry. Tags and fused reporters are not part of them. Residues count along the entry.
UniProt P63104, residues 1-230: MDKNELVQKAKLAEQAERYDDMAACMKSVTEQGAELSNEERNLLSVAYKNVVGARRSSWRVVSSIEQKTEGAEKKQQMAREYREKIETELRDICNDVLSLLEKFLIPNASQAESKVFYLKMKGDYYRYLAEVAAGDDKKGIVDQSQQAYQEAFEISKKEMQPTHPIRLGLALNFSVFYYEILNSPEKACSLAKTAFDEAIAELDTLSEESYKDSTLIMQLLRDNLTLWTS

The target of the test is 14-3-3ζ WT (human) (UniProt P63104). The test can be described thus: pull-down; the same eluates from 14-3-3ζ-Sepharose (WT, pSer58, nhpSer58) incubated with HEK293T lysate, read by Coomassie SDS-PAGE and Western blot; only the target purified. A general note: In western blotting, separated proteins are transferred to a membrane and probed.

No constants are given. Whether binding was seen depends on the method and setting. In cells and extracts the contact can be indirect. Some entries that bind do so weakly or less than the wild type.

B1: Bcl2-associated agonist of cell death (BAD) (protein, UniProt Q92934 1-168)
chain: MFQIPEFEPSEQEDSSSAERGLGPSPAGDGPSGSGKHHRQAPGLLWDASHQQEQPTSSSHHGGAGAVEIRSRHSSYPAGTEDDEGMGEEPSPFRGRSRSAPPNLWAAQRYGRELRRMSDEFVDSFKKGLPRPKSAGTATQMRQSSSWTRVFQSWWDRNLGRGSSAPSQ
As to B1, the binding entry is on record as “binds”.
